For some assays here: No signal at the amounts used counts as a negative. For some assays here: At least one verdict was read from the data and is not stated in words by the source. For some assays here: Where a protein sequence is shown, tags need not be part of it. For some assays here: The comparison behind a weaker result is the experiment's own reference, which may not be listed here. For some assays here: Construct, isoform or probe ends are uncertain for at least one entry.
Key:
LexA + gp7 = test: SPR; settings: SPR: 25 mM Tris-HCl pH 7.4, 140 mM NaCl, 5 mM EDTA, 2 mM DTT, 0.1 mg/ml BSA, 0.005% P20, 25 C; recombinant protein; protein details: N-terminal His6,N-terminal His6; label: 3'-biotin-TEG on S1 capture oligo
LexA = test: SPR; settings: SPR: 25 mM Tris-HCl pH 7.4, 140 mM NaCl, 5 mM EDTA, 2 mM DTT, 0.1 mg/ml BSA, 0.005% P20, 25 C, recombinant protein, protein details: N-terminal His6, label: 3'-biotin-TEG on S1 capture oligo
[1] = target: T1, gp7 (Bacillus thuringiensis phage GIL01) (UniProt Q7WSG2); test: SPR; settings: gp7 alone; SPR: 25 mM Tris-HCl pH 7.4, 140 mM NaCl, 5 mM EDTA, 2 mM DTT, 0.1 mg/ml BSA, 0.005% P20, 25 C; recombinant protein; protein details: N-terminal His6; label: 3'-biotin-TEG on S1 capture oligo
T1 sequence: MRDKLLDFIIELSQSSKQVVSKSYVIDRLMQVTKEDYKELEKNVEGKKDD

[2] = target: T2, gp6 (Bacillus thuringiensis phage GIL01) (UniProt Q5ILC6); test: SPR; settings: decreased stability; SPR: 25 mM Tris-HCl pH 7.4, 140 mM NaCl, 5 mM EDTA, 2 mM DTT, 0.1 mg/ml BSA, 0.005% P20, 25 C; recombinant protein; protein details: N-terminal His6 + thrombin site; label: 3'-biotin-TEG on S1 capture oligo
T2 sequence: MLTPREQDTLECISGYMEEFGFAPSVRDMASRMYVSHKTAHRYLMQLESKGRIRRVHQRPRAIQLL

[3] = target: T2, gp6 (Bacillus thuringiensis phage GIL01); test: EMSA; settings: recombinant protein, protein details: N-terminal His6 + thrombin site, label: 32P end label (bottom strand for footprint), probe letters rebuilt from the primers and the genome, part of a longer molecule
[4] = target: gp6 K38A (Bacillus thuringiensis phage GIL01) (UniProt Q5ILC6); test: EMSA; settings: 0.15-2.4 uM; recombinant protein; residues 1-66; protein details: N-terminal His6 + thrombin site; label: 32P end label (bottom strand for footprint); probe letters rebuilt from the primers and the genome; part of a longer molecule
[5] = target: T2, gp6 (Bacillus thuringiensis phage GIL01); test: DNase I footprinting; settings: gp6 0.3-1.35 uM, protects -35 region; recombinant protein; protein details: N-terminal His6 + thrombin site; label: 32P end label (bottom strand for footprint); probe letters rebuilt from the primers and the genome; part of a longer molecule
LexA + gp6 = test: SPR; settings: saturating both, responses additive; SPR: 25 mM Tris-HCl pH 7.4, 140 mM NaCl, 5 mM EDTA, 2 mM DTT, 0.1 mg/ml BSA, 0.005% P20, 25 C; recombinant protein; protein details: N-terminal His6,N-terminal His6 + thrombin site; label: 3'-biotin-TEG on S1 capture oligo

Row | Sequence | binding result (LexA + gp7) | binding result [2] | binding result (LexA) | other results
1 | GTTACTACTCGAGCGCGTTATGCGGAACACTCGTTCGTATTATAGTATACATATAGCGAACAAACATTCGATAAGGAG / CTCCTTATCGAATGTTTGTTCGCTATATGTATACTATAATACGAACGAGTGTTCCGCATAACG [B23_wt] | binds | – | – | binding result (LexA; stable, concentration-dependent): binds; binding result [1]: no binding
2 | GTTACTACTCGAGCGATTTGTCCAAAATGACACACGTATGACGTTATGCGG / CCGCATAACGTCATACGTGTGTCATTTTGGACAAAT [B23_Sm3] | – | binds more weakly | – | –
3 | GTTACTACTCGAGCGCGTTATGCGGAACACTCGTTCGTATTATAGTATATCTATATATACATATAGCGAACAAACATTCGATAAGGAG / CTCCTTATCGAATGTTTGTTCGCTATATGTATTATAGATATACTATAATACGAACGAGTGTTCCGCATAACG [B23_10ex (10 nt inserted between boxes)] | binds | – | binds | –
4 | GTTACTACTCGAGCGATTTGTCCAAAATGACCCACGTGTGACGTTATGCGG / CCGCATAACGTCACACGTGGGTCATTTTGGACAAAT [B23_Sm2] | – | binds more weakly | – | –
5 | GTTACTACTCGAGCGCGTTATGCGGAACACTCGTTCGTATTATAGTATATAATACATATAGCGAACAAACATTCGATAAGGAG / CTCCTTATCGAATGTTTGTTCGCTATATGTATTATATACTATAATACGAACGAGTGTTCCGCATAACG [B23_5ex (5 nt inserted between boxes)] | binds | – | binds | –
6 | GTTACTACTCGAGCGCGTTATGCGTAGCACTCGTGCGTATTATAGTATACATATAGCTAGCAAACATGCGATAAGGAG / CTCCTTATCGCATGTTTGCTAGCTATATGTATACTATAATACGCACGAGTGCTACGCATAACG [B23_ns (both LexA boxes mutated)] | – | – | no binding | –
7 | GTTACTACTCGAGCGATTTGTCCAAAATTACACACGTGTGACGTTATGCGG / CCGCATAACGTCACACGTGTGTAATTTTGGACAAAT [B23_Sm1] | – | binds more weakly | – | –
8 | AGCATTAAGGAGACAAGCAAAACCGACATTACTTGAAACCATGAAGGCAATAGAGATTCTTGTTGAACAAGGAATAGTAGAAAAGGACTAGCAAAGTTGCTAGTCTTTTTTATTTGTCCAAAATGACACACGTGTGACGTTATGCGGAACACTCGTTCGTATTATAGTATACATATAGCGAACAAACATTCGATAAGGAGTGTGACAAAGTGGATGCTTTAACGGAACTAATCATAGCTAA (double strand) [AatII-HindIII P3 promoter fragment] | – | – | – | binding result ([3]; gp6 0.15-2.4 uM): binds; binding result ([3]; gp6 0.3-1.35 uM): binds; binding result [4]: no binding; binding result [5]: binds
9 | GTTACTACTCGAGCGATTTGTCCAAAATGACACACGTGTGACGTTATGCGGAACACTCGTTCGTATTATAGTATACATATAGCGAACAAACATTCGATAAGGAG / CTCCTTATCGAATGTTTGTTCGCTATATGTATACTATAATACGAACGAGTGTTCCGCATAACGTCACACGTGTGTCATTTTGGACAAAT [B23_Lwt (-35, dinBox2, dinBox3)] | – | – | binds | binding result (LexA + gp6): binds

— PMC6182141, “Lytic gene expression in the temperate bacteriophage GIL01 is activated by a phage-encoded LexA homologue”
